Measured data: PubChem BioAssay AID652272 (Drosophila RNAi Screening Center, 2013)
The deposit covers about 21,000 reagents; below is an unselected part of those with a known target gene and a result. Of all reagents, 503 (2.4%) are marked active. 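Raw plate light values, not normalised; calls rest on replicate z-scores that were not deposited; hits include reporter decreases as well as increases.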 No sequences are given here. Not stated in the record: the amount of reagent, the time to read-out.

Aim: 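Finding fly genes that regulate Hedgehog signal transduction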 (primary screen)
Cells: Drosophila clone 8 (Cl8) cells
Knock-down reagent: long dsRNA against Drosophila genes
Measured: 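Plate reader light from a firefly reporter under a ptc promoter fragment that responds to Hedgehog, with Renilla light as transfection reference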
Scale: firefly Hh reporter signal: higher = more ptc reporter light; Renilla reference signal: higher = more Renilla control light
Rule for the call: 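Called a hit if the two-replicate mean z-score lies below -2 or above +3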
Meaning of the calls: active = hit: reporter lowered or raised; inactive = not a hit

| target | DRSC id | firefly Hh reporter signal, replicate 1 | firefly Hh reporter signal, replicate 2 | firefly Hh reporter signal, replicate 3 | Renilla reference signal, replicate 1 | Renilla reference signal, replicate 2 | Call |
| --- | --- | --- | --- | --- | --- | --- | --- |
| ubl (GeneID 35592) | DRSC04998 | 89692 | 32403 | – | 2240 | 2330 | inactive |
| CG14797 (GeneID 31123) | DRSC17955 | 52610 | 1.69e5 | – | 1254 | 7268 | inactive |
| B4 (GeneID 34767) | DRSC01868 | 70176 | 83757 | – | 3080 | 2928 | inactive |
| B4 (GeneID 34767) | DRSC03175 | 1.18e5 | 62630 | – | 3206 | 5734 | inactive |
| CG14837 (GeneID 38849) | DRSC10207 | 42240 | 53688 | – | 4625 | 3532 | inactive |
| CG10494 (GeneID 37453) | DRSC04072 | 1.11e5 | 71131 | – | 3958 | 2496 | inactive |
| CG31313 (GeneID 318677) | DRSC13044 | 49253 | 1.31e5 | – | 10576 | 2562 | inactive |
| eEFSec (GeneID 37444) | DRSC04571 | 65322 | 57995 | – | 2032 | 4944 | inactive |
| betaNACtes5 (GeneID 10178924) | DRSC19100 | 5.45e5 | 1.85e5 | – | 30635 | 3524 | inactive |
| Mur2B (GeneID 31111) | DRSC18545 | 96138 | 2.12e5 | – | 1637 | 8585 | inactive |
| Mur2B (GeneID 31111) | DRSC18546 | 72794 | 2.03e5 | – | 1586 | 8636 | inactive |
| Vha26 (GeneID 40679) | DRSC12371 | 1.17e5 | 51787 | – | 4480 | 2112 | inactive |
| Epp (GeneID 42840) | DRSC14607 | 1.53e5 | 86040 | – | 6170 | 3636 | inactive |
| w (GeneID 31271) | DRSC17233 | 6.74e5 | 3.58e5 | – | 37014 | 7810 | inactive |
| w (GeneID 31271) | DRSC18850 | 72592 | 1.36e5 | – | 2644 | 6202 | inactive |
| CG14220 (GeneID 32954) | DRSC19577 | 79046 | 1.53e5 | – | 2316 | 8565 | inactive |
| beat-IIb (GeneID 42082) | DRSC13219 | 47968 | 1.24e5 | – | 10461 | 3531 | inactive |
| beat-IIb (GeneID 42082) | DRSC14816 | 68802 | 97857 | – | 2512 | 4429 | inactive |
| beat-IIb (GeneID 42082) | DRSC15546 | 85640 | 1.45e5 | – | 2922 | 5971 | inactive |
| blanks (GeneID 38620) | DRSC09757 | 81673 | 81211 | – | 4832 | 5378 | inactive |
| CG34301 (GeneID 5740866) | DRSC12704 | 1.95e5 | – | – | 4002 | – | inactive |
| Rs1 (GeneID 44087) | DRSC05945 | 51757 | 54720 | – | 2812 | 2625 | inactive |
| nompC (GeneID 33768) | DRSC03581 | 78759 | 56342 | – | 1259 | 5885 | inactive |
| CG5174 (GeneID 37117) | DRSC06920 | 1.48e5 | 1.15e5 | – | 5738 | 4675 | inactive |
| por (GeneID 32818) | DRSC20362 | 1.19e5 | 3.30e5 | – | 2496 | 12134 | inactive |
| Lst (GeneID 36853) | DRSC07146 | 1.39e5 | 96033 | – | 3770 | 7136 | inactive |
| CG9021 (GeneID 33818) | DRSC03128 | 1.10e5 | 54109 | – | 3970 | 2534 | inactive |
| CG15741 (GeneID 32137) | DRSC19707 | 74241 | 1.75e5 | – | 2403 | 7564 | inactive |
| Tmtc3 (GeneID 37401) | DRSC04444 | 67753 | 62491 | – | 1868 | 2396 | inactive |
| zye (GeneID 40255) | DRSC11784 | 1.09e5 | 1.46e5 | – | 3798 | 3498 | inactive |
| GstD4 (GeneID 48337) | DRSC16685 | 1.44e5 | 1.30e5 | – | 5405 | 3619 | inactive |
| AlaRS (GeneID 34156) | DRSC01851 | 86641 | 66034 | – | 3777 | 1670 | inactive |

No new results follow: an excerpt of the list.
| target | DRSC id | firefly Hh reporter signal, replicate 1 | firefly Hh reporter signal, replicate 2 | firefly Hh reporter signal, replicate 3 | Renilla reference signal, replicate 1 | Renilla reference signal, replicate 2 | Call |
| --- | --- | --- | --- | --- | --- | --- | --- |
| CG15741 (GeneID 32137) | DRSC19707 | 74241 | 1.75e5 | – | 2403 | 7564 | inactive |
| Tmtc3 (GeneID 37401) | DRSC04444 | 67753 | 62491 | – | 1868 | 2396 | inactive |
| zye (GeneID 40255) | DRSC11784 | 1.09e5 | 1.46e5 | – | 3798 | 3498 | inactive |
| GstD4 (GeneID 48337) | DRSC16685 | 1.44e5 | 1.30e5 | – | 5405 | 3619 | inactive |

The listing continues.
| target | DRSC id | firefly Hh reporter signal, replicate 1 | firefly Hh reporter signal, replicate 2 | firefly Hh reporter signal, replicate 3 | Renilla reference signal, replicate 1 | Renilla reference signal, replicate 2 | Call |
| --- | --- | --- | --- | --- | --- | --- | --- |
| mAcon2 (GeneID 41326) | DRSC15629 | 60648 | 1.22e5 | – | 1910 | 3601 | inactive |
| CG6847 (GeneID 32778) | DRSC19213 | 6.00e5 | 2.29e5 | – | 34246 | 5485 | inactive |
| CG6847 (GeneID 32778) | DRSC20009 | 79226 | 1.38e5 | – | 3121 | 6284 | inactive |
| IFT54 (GeneID 41739) | DRSC15469 | 1.31e5 | 1.21e5 | – | 4331 | 3785 | inactive |
| MED31 (GeneID 40577) | DRSC12142 | 91812 | 64816 | – | 3346 | 1895 | inactive |
| Polr3C (GeneID 41542) | DRSC14490 | 1.39e5 | 1.06e5 | – | 6640 | 4725 | inactive |
| Qtzl (GeneID 318990) | DRSC01221 | 6.77e5 | 2.79e5 | – | 37762 | 10292 | inactive |
| park (GeneID 40336) | DRSC11618 | 89466 | 71334 | – | 3616 | 3019 | inactive |
| CG17237 (GeneID 33411) | DRSC00491 | 1.20e5 | 1.33e5 | – | 2922 | 3043 | inactive |
| CG14322 (GeneID 42124) | DRSC14801 | 5.16e5 | 1.18e5 | – | 25284 | 3225 | inactive |
| CG7872 (GeneID 32493) | DRSC20062 | 94784 | 71571 | – | 2336 | 1778 | inactive |
| CG8908 (GeneID 37293) | DRSC07297 | 78272 | 64072 | – | 1984 | 4205 | inactive |
| Vps51 (GeneID 37156) | DRSC06519 | 1.57e5 | 69218 | – | 6198 | 2956 | inactive |
| CG32547 (GeneID 3346150) | DRSC19263 | 5.36e5 | 2.03e5 | – | 30210 | 3339 | inactive |
| CG32547 (GeneID 3346150) | DRSC19265 | 6.73e5 | 2.11e5 | – | 35402 | 4732 | inactive |
| CG32547 (GeneID 3346150) | DRSC19474 | 97478 | 2.17e5 | – | 1975 | 8480 | inactive |
| CG32547 (GeneID 3346150) | DRSC19626 | 88720 | 2.63e5 | – | 2092 | 8448 | inactive |
| CG40551 (retired record) (GeneID 5740872) | DRSC21229 | 7.14e5 | 2.86e5 | – | 40551 | 6173 | inactive |
| Lcp1 (GeneID 35817) | DRSC07455 | 1.06e5 | 69712 | – | 2491 | 5212 | inactive |
| CG17580 (GeneID 50228) | DRSC06683 | 1.03e5 | 65924 | – | 2131 | 4322 | inactive |
| CG9717 (GeneID 43636) | DRSC16543 | 1.03e5 | 99302 | – | 2834 | 2587 | inactive |
| CG6565 (GeneID 34749) | DRSC02970 | 1.83e5 | 65802 | – | 7056 | 2391 | inactive |
| CG14383 (GeneID 41593) | DRSC14841 | 73216 | 80940 | – | 1207 | 1478 | inactive |
| CG7295 (GeneID 33365) | DRSC00699 | 74938 | 75841 | – | 1735 | 1704 | inactive |
| CG12926 (GeneID 35996) | DRSC06239 | 1.36e5 | 6.73e5 | 73058 | 2980 | 36773 | inactive |
